For at least one compound, name, drawing or mass did not settle the structure.
What was measured:
[1] = Spectroscopic titration of compound 23 with PFOA; type: binding; conditions: for change of UV/vis absorption band upon titration with PFOA / change of fluorescence emission upon titration with PFOA: c[23]=1×10^−5 M
[2] = Interaction of compound 23 with weak acids; type: binding; conditions: acetic acid, methacrylic acid and fatty acids
[3] = UV/vis absorption and emission spectra (Stokes shift); type: physicochemical
Procedure: Absorption spectra and spectrophotometric titrations were acquired with a Specord 210 Plus spectrometer (Analytik Jena), using dilute solutions with an absorbance of about 0.1 at the absorption maximum. The binding constants were assessed with BindFit v0.5 software. Fluorescence spectra and titrations were carried out on a FluoroMax 4 spectrofluorometer (Horiba Jobin-Yvon).
Normalized UV/vis absorption and emission (λex=465 nm) spectra at a fixed concentration of thiourea-based compound 19 were recorded in CHCl3, toluene, acetonitrile (MeCN) and methanol (MeOH), yielding Stokes shifts between 160 nm and 230 nm, respectively. This positive solvatochromism is ascribed to the effective intramolecular charge transfer from the two electron-donating groups (thiourea and tertiary amine) to the electron-accepting benzodiazole as the solvent polarity increases (FIG. 1-4). […]
Normalized UV/vis absorption and emission spectra of guanidinium-based compound 25 at a fixed concentration were recorded in CHCl3 and MeCN. Sizable Stokes shifts of 180 nm and 210 nm were observed (FIGS. 8 and 9) as a result of the effective intramolecular charge transfer process established from the two electron-donating groups (guanidinium and tertiary amine) to the electron-accepting benzodiazole in solvents of different polarity.

In the case of `C=C(C)C(=O)OCCN(C)c1ccc(NC(=N)NC(=O)c2ccccc2)c2nonc12` [Compound 23, 2-((7-(3-benzoylguanidino)benzo[c][1,2,5]oxadiazol-4-yl)(methyl)amino)ethyl methacrylate], the “interaction with strong oxoacids (e.g. PFOA)” value [1] is reported as “can interact”, the “change of absorption band upon titration with PFOA, all solvents” value ([1]; EtOAc, MeCN and MeCN/H2O mixtures (1, 5, 10 and 25 vol % H2O)) is reported as “increase and a blue shift” and the “change of UV/vis absorption band upon titration with PFOA” value ([1]; EtOAc) is reported as “increase and blue shift”. The “change of fluorescence emission upon titration with PFOA” value ([1]; EtOAc) was “increase and blue shift”, the “change of UV/vis absorption band upon titration with PFOA” value ([1]; MeCN/H2O (5 vol % H2O)) was “increase and blue shift” and the “change of fluorescence emission upon titration with PFOA” value ([1]; MeCN/H2O (5 vol % H2O)) was “increase and blue shift”. For the same compound, the “change of UV/vis absorption band upon titration with PFOA” value ([1]; MeCN) was “increase and blue shift”, the “change of fluorescence emission upon titration with PFOA” value ([1]; MeCN) was “increase and blue shift” and the “interaction with weak acids” value [2] was “does not interact”. For the same compound, the absorption wavelength ([3]; in MeCN) was 447 nm, the emission wavelength ([3]; in MeCN) was 674 nm and the Stokes shift ([3]; in MeCN/H2O with 5 vol % H2O) was > 220 nm. The Stokes shift ([3]; in acetonitrile (MeCN)) was > 220 nm and the Stokes shift ([3]; in ethyl acetate (EtOAc)) was > 200 nm.
